Reference: publication doi:10.1101/659938
Results are given in words; binding and its absence hold for the method and conditions named. Binding calls can cover weak binding; strength is not graded here. Sequences can lack the tags named with a protein. Values belong to the molecule of their own block, whether it stands above or below them.

Experiments:
[1] = target: T1, EGFP-Megator^1187-1655/WT (Drosophila) (UniProt A1Z8P9); assay: LARIAT
T1 sequence: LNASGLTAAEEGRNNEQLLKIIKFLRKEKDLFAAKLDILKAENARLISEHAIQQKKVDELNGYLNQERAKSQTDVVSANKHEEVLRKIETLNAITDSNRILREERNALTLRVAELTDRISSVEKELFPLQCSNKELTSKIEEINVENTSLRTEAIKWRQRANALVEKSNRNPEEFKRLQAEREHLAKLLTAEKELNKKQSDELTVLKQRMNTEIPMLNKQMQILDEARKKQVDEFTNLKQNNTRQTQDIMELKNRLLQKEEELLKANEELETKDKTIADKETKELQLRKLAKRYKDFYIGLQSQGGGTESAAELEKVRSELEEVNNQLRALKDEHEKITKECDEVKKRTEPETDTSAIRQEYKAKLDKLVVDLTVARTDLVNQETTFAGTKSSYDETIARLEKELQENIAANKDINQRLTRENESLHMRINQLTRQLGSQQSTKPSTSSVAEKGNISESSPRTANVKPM

[2] = target: 6xHis-Mad1^1-493 (Drosophila); assay: pull-down

Molecule: Mad1 (Drosophila (endogenous in S2 cells))
- binding [1]: binds weakly

- binding [2]: binds
B1: MBP-Megator^1187-1655/WT (domain or fragment, UniProt A1Z8P9 1187-1655)
chain: T1 sequence
